Measured data: PubChem BioAssay AID1259308 (NCATS, 2017)
Assay: 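Knock-downs that increase output of a recombinant reporter protein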 (primary screen). Cells: human HEK293 embryonic kidney cells stably expressing firefly luciferase (HEK-CMV-Luc2-Hygro). Reagents: single siRNA against human genes, 0.8 pmol siRNA per well. Time to read-out: 72 h. Measurement: 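Reporter luminescence and viable-cell signal on separate replicate plates, given as percent of non-targeting control and median/MAD z-scores, plus per-cell luciferase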. Scale: total luciferase, z-score and total luciferase, % of control: higher = more reporter protein produced; luciferase per cell, z-score: higher = more reporter output per viable cell; viable cells, % of control: higher = more viable cells. Active means: 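An siRNA counts as active if its total luciferase robust z-score exceeds 3; genes with two or more such siRNAs out of three were retested with fresh siRNAs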. Calls: active = raised luciferase; inactive = no rise.
The whole screen tested about 59,000 reagents; this is an unselected part. Over the whole deposit, about 1,510 (2.6%) got an active call. 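Calls use total luciferase alone and ignore viability, so some active siRNAs may act by altering cell number.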 Reagents against one gene are numbered here. Reagent sequences are not shown.

no.	gene	reagent	total luciferase, z-score	total luciferase, % of control	luciferase per cell, z-score	viable cells, % of control	outcome
1	ABCC4	1	-2.18	38.5	-2.82	90.5	inactive
2	ABCC4	2	0.317	88.2	0.674	82.5	inactive
3	ABCC4	3	-0.98	62.4	0.151	67	inactive
4	P2RX7	1	0.142	84.7	-0.149	98.4	inactive
5	P2RX7	2	-0.234	77.2	-0.516	98.9	inactive
6	P2RX7	3	-1.85	45	-2.44	95.8	inactive
7	FAM13A	1	-0.00865	81.7	-0.543	105	inactive
8	FAM13A	2	-1.02	61.5	-0.131	71.1	inactive
9	FAM13A	3	-2.13	39.6	-1.47	65.2	inactive
10	VPS26C	1	1.42	110	0.851	98.4	inactive
11	VPS26C	2	0.506	92	1.34	72.3	inactive
12	VPS26C	3	2.56	133	1.36	104	inactive
13	MRPL28	1	0.492	91.7	0.969	79.4	inactive
14	MRPL28	2	0.36	89	1.51	66.9	inactive
15	MRPL28	3	-0.618	69.6	-0.454	87.6	inactive
16	ECI2	1	-1.42	53.7	-0.554	69.4	inactive
17	ECI2	2	0.34	88.6	0.17	94.7	inactive
18	ECI2	3	-1.54	51.2	-1.98	96.3	inactive
19	ASB13	1	0.0603	83.1	-0.0415	93.9	inactive
20	ASB13	2	-0.888	64.2	-0.237	76.4	inactive
21	ASB13	3	0.28	87.5	-0.0285	98.5	inactive
22	ZNF462	1	-0.329	75.3	0.104	81.9	inactive
23	ZNF462	2	-1.03	61.3	0.0887	66.9	inactive
24	ZNF462	3	-0.39	74.1	0.0137	82.5	inactive
25	CCDC106	1	0.347	88.8	-0.146	103	inactive
26	CCDC106	2	-0.116	79.6	0.0795	87.1	inactive
27	CCDC106	3	-0.357	74.8	-0.052	84.7	inactive
28	SPCS3	1	-0.526	71.4	-0.798	98.5	inactive
29	SPCS3	2	-0.529	71.4	-1.03	104	inactive
30	SPCS3	3	-1.17	58.6	-1.57	99	inactive
31	TOM1L2	1	-1.33	55.4	-1.21	85	inactive
32	TOM1L2	2	-1.67	48.6	-1.54	81.6	inactive
33	TOM1L2	3	-1.11	59.8	-0.311	72.5	inactive
34	GPR152	1	-0.669	68.6	-0.365	84.4	inactive
35	GPR152	2	2.45	131	1.43	100	inactive
36	GPR152	3	-1.53	51.6	-1.28	80.7	inactive
37	PFKFB3	1	-0.904	63.9	0.0505	70.5	inactive
38	PFKFB3	2	-0.169	78.5	-0.665	105	inactive
39	PFKFB3	3	-0.751	66.9	-0.209	79	inactive

Ordered by “viable cells, % of control” (descending): 5 of the entries above.
gene	reagent	total luciferase, z-score	total luciferase, % of control	luciferase per cell, z-score	viable cells, % of control	outcome
SPCS3	2	-0.529	71.4	-1.03	104	inactive
SPCS3	3	-1.17	58.6	-1.57	99	inactive
SPCS3	1	-0.526	71.4	-0.798	98.5	inactive
TOM1L2	1	-1.33	55.4	-1.21	85	inactive
TOM1L2	2	-1.67	48.6	-1.54	81.6	inactive
